PMC12394722

Protein sequences, listed by entry. Tags and fused reporters are not part of them. Residues count along the entry.
UniProt O00571, 1-132 K35A/R37A/R44A/R46A/K50A: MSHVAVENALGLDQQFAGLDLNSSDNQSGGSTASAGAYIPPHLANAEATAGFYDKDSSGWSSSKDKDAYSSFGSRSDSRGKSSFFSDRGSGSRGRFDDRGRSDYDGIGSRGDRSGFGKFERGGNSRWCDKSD
UniProt O00571, 1-132: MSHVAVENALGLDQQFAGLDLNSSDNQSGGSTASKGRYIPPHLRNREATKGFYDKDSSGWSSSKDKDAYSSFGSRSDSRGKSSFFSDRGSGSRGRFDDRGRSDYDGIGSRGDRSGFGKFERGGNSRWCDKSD
UniProt O00571, 31-61: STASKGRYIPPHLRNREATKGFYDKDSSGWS
UniProt O00571, 73-102: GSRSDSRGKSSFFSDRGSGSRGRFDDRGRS
UniProt O00571, 1-607: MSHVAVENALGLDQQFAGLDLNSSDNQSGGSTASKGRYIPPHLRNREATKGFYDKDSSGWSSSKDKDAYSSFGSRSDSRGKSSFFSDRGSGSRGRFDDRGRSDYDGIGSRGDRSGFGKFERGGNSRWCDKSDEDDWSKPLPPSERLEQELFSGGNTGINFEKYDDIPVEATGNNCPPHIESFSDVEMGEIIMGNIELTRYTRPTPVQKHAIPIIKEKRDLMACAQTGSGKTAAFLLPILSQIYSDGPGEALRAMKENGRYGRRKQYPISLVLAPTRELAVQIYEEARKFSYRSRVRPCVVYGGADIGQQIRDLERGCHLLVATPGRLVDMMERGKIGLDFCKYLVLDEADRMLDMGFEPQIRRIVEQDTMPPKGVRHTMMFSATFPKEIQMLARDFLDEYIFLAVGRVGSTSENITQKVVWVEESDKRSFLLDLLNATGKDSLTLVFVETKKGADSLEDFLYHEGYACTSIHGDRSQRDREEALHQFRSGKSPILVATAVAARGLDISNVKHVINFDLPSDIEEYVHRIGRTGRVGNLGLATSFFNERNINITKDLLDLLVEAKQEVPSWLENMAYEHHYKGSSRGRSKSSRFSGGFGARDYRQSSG

Key:
[1] = target: N-IDR RKtoA-1 K35A,R37A,R44A,R46A,K50A (human) (UniProt O00571); assay: NMR; details: mutated region lost, other RR clusters bind as WT; NMR: 200 mM KCl (also 120 mM), 10 C, 50 uM; recombinant protein; residues 1-132; protein details: His6-SUMO tag cleaved
[2] = target: DDX3X N-IDR (human) (UniProt O00571); assay: NMR; details: NMR: 200 mM KCl (also 120 mM), 10 C, 50 uM, recombinant protein, residues 1-132, protein details: His6-SUMO tag cleaved (Ulp1)
[3] = target: RR-1 fragment (human) (UniProt O00571); assay: ITC; details: range over RR-1/RR-2 and both GQ RNAs, 50 mM KCl; ITC: 20 mM K-phosphate pH 7.0, 50 mM KCl, 25 C; recombinant protein; residues 31-61; protein details: His6-SUMO tag cleaved
[4] = target: RR-2 fragment (human) (UniProt O00571); assay: ITC; details: range over RR-1/RR-2 and both GQ RNAs, 50 mM KCl; ITC: 20 mM K-phosphate pH 7.0, 50 mM KCl, 25 C; recombinant protein; residues 73-102; protein details: His6-SUMO tag cleaved
[5] = target: N-Core-MBP DDX3X (human) (UniProt O00571); assay: NMR; details: NMR: 200 mM KCl (also 120 mM), 10 C, 50 uM; recombinant protein; residues 1-607; protein details: C-terminal MBP

UAGGGUUAGGGU [telomeric GQ RNA]
binding result [1]: binds more weakly | binding result ([2]; 400 mM KCl): binds more weakly | binding result ([2]; 1 M KCl, nearly completely abolished): no binding | binding result [3]: binds | binding result [4]: binds

UGUAGAAAGAGCAGAUCUAGAUGC [NRAS mutant RNA]
binding result [5]: binds more weakly | binding result ([2]; 200 mM KCl): binds more weakly

UGUGGGAGGGGCGGGUCUGGGUGC [NRAS GQ RNA]
binding result ([2]; 400 mM KCl): binds more weakly | binding result [3]: binds | binding result [4]: binds

UUUUUUUUUU [poly-U10]
binding result ([2]; 200 mM KCl): binds more weakly

For some assays here: Negatives hold for the conditions tested. For some assays here: The comparison behind a weaker result is the experiment's own reference, which may not be listed here. For some assays here: For at least one entry, the source does not settle the construct or the ends of the probe. For some assays here: At least one verdict was read from the data and is not stated in words by the source.
